This is one part of the list.

The chains behind the UniProt entries cited, without tags or fusion partners.
UniProt Q0JBA9, entry or part of it: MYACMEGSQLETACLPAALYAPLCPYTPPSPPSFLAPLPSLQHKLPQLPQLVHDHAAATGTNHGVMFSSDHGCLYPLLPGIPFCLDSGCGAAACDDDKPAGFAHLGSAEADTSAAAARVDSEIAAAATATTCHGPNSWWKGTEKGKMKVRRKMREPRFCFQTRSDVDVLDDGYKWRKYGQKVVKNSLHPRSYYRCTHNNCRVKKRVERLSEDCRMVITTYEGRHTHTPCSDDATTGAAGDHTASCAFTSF

The experiment addresses OsWRKY34 (Oryza sativa, UniProt Q0JBA9 1-250). The experiment in a line: protein-binding microarray (RPBM); PBS, 2% BSA, 51.3 ng/ul salmon testes DNA, 50 uM zinc acetate, 200 nM TF, 25 C, 1 h; high values mean tight binding. Particulars: protein: recombinant; tags: N-terminal polyhistidine and DsRed monomer fusion (pET32a); label: CyDye5-dUTP incorporated in the synthesized complementary strand; 3' TTTTT single-stranded linker to array surface; dsDNA, one strand shown. A digest of the protocol: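 The binding signal is fluorescence intensity per array feature (arbitrary units). Readings came from an Axon 4000B scanner after a washed, 2% BSA-blocked, double-stranded custom Agilent array had been incubated for 1 h at 25 °C with 200 nM protein and 50 µM zinc acetate. The protein was a Ni–NTA-purified transcription factor fused N-terminally to polyhistidine and DsRed, expressed in E. coli BL21-CodonPlus.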
Consider “AAACCTGGTCGAACCCAACCGCCTTCGTCCGGTCCGGACGCGGAGTCACCTAGTGCAG”, for which the binding signal was 9010 fluorescence intensity (a.u.).
In the case of “CGCTTCTATCGCCACGTGTCTAGGGTTTGGGTTTTGATACCGGAGTCACCTAGTGCAG” it was 14000 fluorescence intensity (a.u.); in that of “TTTTGGAAATTAGGGGCGGGTTATACCCAGTTTTGCGGTTCGGAGTCACCTAGTGCAG”, 12700 fluorescence intensity (a.u.); in that of “CGTCATTTTTTTTAACCTTTTCCTATACGTCTCATTTCTTCGGAGTCACCTAGTGCAG”, 9760 fluorescence intensity (a.u.).
For “GTTTTTAATGTTTATGTCACGTATGTTTAATCATTTATCTCGGAGTCACCTAGTGCAG” the value was 8330 fluorescence intensity (a.u.); for “GATGTTTCAGGCAGCACATACGGATGTTTCTCGTATTTCGCGGAGTCACCTAGTGCAG”, 8030 fluorescence intensity (a.u.).
With “CATAGGGGAATCGGACTTTTTTTATCTATGTTGGTTTTTTCGGAGTCACCTAGTGCAG”, the binding signal was 13100 fluorescence intensity (a.u.).
For “TAAATGTGCTCTTGCCACCCGATATCGTTATCTCTACTGCCGGAGTCACCTAGTGCAG”, the binding signal was 8600 fluorescence intensity (a.u.).
For “TACGAGCTTCTCCTCCTCCGCTGGTCATCATCCTACCTGTCGGAGTCACCTAGTGCAG” the value was 8440 fluorescence intensity (a.u.); for “AGATTAGATCATAGGCAGTCTTTCTTTTCTTTCTTTTTTTCGGAGTCACCTAGTGCAG”, 10200 fluorescence intensity (a.u.); for “AGTTAATCCTTGTTAAACTTTGGTTTCAAAACAATTTCCCCGGAGTCACCTAGTGCAG”, 65500 fluorescence intensity (a.u.).
With “GTGTTCTGGTAGCTTTTCTTGGTACGCTGCGTTGGAAGGACGGAGTCACCTAGTGCAG”, the binding signal was 8150 fluorescence intensity (a.u.).
In the case of “AACGCCACGCGAAGCTTTTTTGACCTCGCGCTTTTCCACCCGGAGTCACCTAGTGCAG” it was 9730 fluorescence intensity (a.u.); in that of “TGCATTCCTGTCAGAATCCTATGTTTTTCCTATTTCTCCGCGGAGTCACCTAGTGCAG”, 10900 fluorescence intensity (a.u.).
In the case of “CCACAGCAGACTGGCTAGTAATTACTACTCCCTCCGTTTCCGGAGTCACCTAGTGCAG” it was 8150 fluorescence intensity (a.u.).
For the sequence “GCGTCACCGCCTCAACTTGTCATCAGTCTGCCGCTCCCTCCGGAGTCACCTAGTGCAG”, the binding signal is 12800 fluorescence intensity (a.u.).
For “ATTCAAACATTAGGATTTTTTTCCTATATGCCTCATTCCTCGGAGTCACCTAGTGCAG” the value was 8230 fluorescence intensity (a.u.); for “ATAATTCCTTGTGTACTCATCCAGCTTTCAATACTACATACGGAGTCACCTAGTGCAG”, 9400 fluorescence intensity (a.u.); for “GAAAAACCCACCCGGATCGATCGATATTCCCGGCGTTTCCCGGAGTCACCTAGTGCAG”, 8520 fluorescence intensity (a.u.).
On to “ACTTTTGTACTTCTTTGATCTTTGTTAGTTTTGATCTGATCGGAGTCACCTAGTGCAG”, for which the binding signal was 9630 fluorescence intensity (a.u.).
In the case of “AGTTTCGAAATATTTGACGCCGTTGACTTTTTATCAAATGCGGAGTCACCTAGTGCAG” it was 28300 fluorescence intensity (a.u.).
For “TAGTTAGGAGTTGAGTTGACCAACTTAACTACCTTTCGCCCGGAGTCACCTAGTGCAG” the value was 10400 fluorescence intensity (a.u.); for “TGCACTTATCTATTCTTTTCTATGTATTATGTTTTAGGTGCGGAGTCACCTAGTGCAG”, 8340 fluorescence intensity (a.u.); for “CTCCCATCGATGTAACTCTCTCACTTTCTTCTCTCTAGAACGGAGTCACCTAGTGCAG”, 8600 fluorescence intensity (a.u.).
For “AGATATAGATGTCCCTCTTGTCACCTCCACCACCGTTGACCGGAGTCACCTAGTGCAG” the value was 14400 fluorescence intensity (a.u.).
On to “GCTCTCATCAACTCGACTCGACCGGTAATCGATCGCGACTCGGAGTCACCTAGTGCAG”, for which the binding signal is 8640 fluorescence intensity (a.u.).
For “CTGTTAGTCCAAAAATGGATGGCTGGGGTGGGCTCTACTTCGGAGTCACCTAGTGCAG” the value was 12600 fluorescence intensity (a.u.).
On to “TAAAACACTAATGAATCGATTGATCTCGTCTCACCAGTTACGGAGTCACCTAGTGCAG”, for which the binding signal is 8050 fluorescence intensity (a.u.).
In the case of “GTCCCCATCCCATTCGGCCACCGATCCCAATCTCAATCTGCGGAGTCACCTAGTGCAG” it was 8480 fluorescence intensity (a.u.); in that of “TGTCCAACTTTTGCTGGTTCATCTGCATCGATCTTAATTCCGGAGTCACCTAGTGCAG”, 10700 fluorescence intensity (a.u.).
Take “ACTAGTTAACACATATTCCTAGTCAAATTTGTTTTTTTTCCGGAGTCACCTAGTGCAG”: the binding signal is 10100 fluorescence intensity (a.u.).
On to “TGCGGGTTGGGGATCTCATCGCGGCGGCGGCGGCGGACTACGGAGTCACCTAGTGCAG”, for which the binding signal was 9190 fluorescence intensity (a.u.).
As to “ATTTGACCGCCGGTGTCGCCACCTCCCAGCCACTGGAGCACGGAGTCACCTAGTGCAG”, the binding signal was 8330 fluorescence intensity (a.u.).
For “ACTTTTACATGGTGTTTCCACTTTCCAGTTCCTTGTTTCTCGGAGTCACCTAGTGCAG” the value was 10000 fluorescence intensity (a.u.).
Regarding “GGACGAGGTCTTCTAGCTCCATATTTTGTTTTGCTTTTCTCGGAGTCACCTAGTGCAG”, the binding signal is 12400 fluorescence intensity (a.u.).
For “GGGGTGAGTTAGACTGACATGTGGGGCCCGCCATTCTTTTCGGAGTCACCTAGTGCAG” the value was 10100 fluorescence intensity (a.u.); for “CATGTCGGTCTGACTGGTCTTTACTCATATGCTCAAATCCCGGAGTCACCTAGTGCAG”, 8280 fluorescence intensity (a.u.).
With “CCAAAGTTAGGTCGTACAGTTTGACCAAGTTAATACTAGTCGGAGTCACCTAGTGCAG”, the binding signal was 8730 fluorescence intensity (a.u.).
In the case of “GAATCTTTCTTTTCCTTTCCCCTTTTCGTTTCTGTTTTTTCGGAGTCACCTAGTGCAG” it was 10600 fluorescence intensity (a.u.); in that of “ACGAACGGTCAAATATGTTTGGAAAAGTCAACGGCGTCAACGGAGTCACCTAGTGCAG”, 10700 fluorescence intensity (a.u.); in that of “CCCGCAAGAAACACCACACCTCGCCGCCGGCGACCCACCGCGGAGTCACCTAGTGCAG”, 8660 fluorescence intensity (a.u.).
For “CTAGTGAGCTGTGTAGTTCGTTGTGCCTATGACTGTTAACCGGAGTCACCTAGTGCAG”, the binding signal is 9690 fluorescence intensity (a.u.).

(Values after paper PMC7819943, “Rice protein-binding microarrays: a tool to detect cis-acting elements near promoter regions in rice”.)
